Consider 20 molecules from the supplement of paper PMC12889115.

For this assay, the system named is Salmonella enterica serovar Typhimurium SL1344. The assay can be described thus: bacterial growth OD600 after 18 h with compound and polymyxin B; higher = more bacterial growth (less inhibition). Particulars: 50 µM, Mueller-Hinton broth.

Structures are written as SMILES. Some of the results follow. Values are raw readings; no control value is given beside them.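 First-pass screen: polymyxin B was added at a level that permeabilizes the Salmonella outer membrane while sparing the inner membrane. DMSO wells, with and without polymyxin B, defined maximum growth. Because plates differed from one another, each plate's data were ranked separately and the compounds with the lowest OD600 were carried forward as hits.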

For the molecule `COc1ccc(OC2CCN(C3CCCC3)CC2)c(C(=O)NCc2csc(C)n2)c1`, the “bacterial growth OD600” value (polymyxin B 1 µg/mL) is 1.17.
Same read-out and setting: the figure for `Cc1ccn(CCC(=O)NC2CCCc3c2cnn3-c2ccc(F)cc2F)n1` (stereo not given) is 0.844.
Take `CCOC(=O)C1(CCCc2ccccc2)CCN(C(=O)CSC)CC1`: under “polymyxin B 1 µg/mL”, the “bacterial growth OD600” value came to 0.368.
As to `CCN1CCN(C(=O)c2coc(COc3cccc(F)c3F)n2)CC1`, the “bacterial growth OD600” value (polymyxin B 1 µg/mL) worked out at 0.97.
On the same count and under the same terms, the same measure for `COc1cc(NC(=O)CCC2CCCN(C(=O)Cc3cccnc3)C2)cc(OC)c1` (stereo not given): 1.11.
`CSc1ccccc1N1C(=O)CN(C(=O)[C@@H]2C[C@H]2c2ccccc2)CC1C` (stereo not given in full): the “bacterial growth OD600” value (polymyxin B 0.75 µg/mL) was 0.805.
Same read-out and setting: the same measure for `CN(C(=O)c1cccs1)C(Cc1ccccc1F)C1CCN(C(=O)/C=C/c2ccncc2)CC1` (stereo not given): 0.864.
In the case of `COc1ccccc1CCN1CCC(CN(C)C(=O)c2ccc(F)c(Cl)c2)CC1`, the “bacterial growth OD600” value (polymyxin B 1 µg/mL) turned out to be 1.14.
On the same count and under the same terms, the figure for `CCOC(=O)C1(CC2CC2)CCN(Cc2ccc(F)c(OC)c2)CC1` is 0.893; for `O=S(=O)(CC1CC1)c1ncc(CN2CCSCC2)n1CC1CCCO1` (stereo not given) it is 0.911.
`Cc1cnccc1CNC(=O)C1(N2C[C@@H](C)O[C@@H](C)C2)Cc2ccccc2C1`: the “bacterial growth OD600” value (polymyxin B 1 µg/mL) was determined as 1.22.
On to `CC(C)CCNC(=O)c1cn(CC(C)C)cc(C(=O)N2CCN(C/C=C/c3ccccc3)CC2)c1=O`, for which the “bacterial growth OD600” value (polymyxin B 0.75 µg/mL) turned out to be 0.015.
As to `CCOC(=O)N1CCN(Cc2c[nH]nc2-c2ccc(C)c(C)c2)CC1`, the “bacterial growth OD600” value (polymyxin B 1 µg/mL) was 0.918.
Turning to `CCN1CCN(C2(C(=O)NC(C)Cc3cccnc3)Cc3ccccc3C2)CC1` (stereo not given), the “bacterial growth OD600” value (polymyxin B 0.75 µg/mL) was 0.793.
With `CCc1[nH]c2ccc(CNC(=O)CCN3CCCO3)cc2c1C`, the “bacterial growth OD600” value (polymyxin B 1 µg/mL) was 1.03.
Still for that read-out and setting: the same measure for `Cc1c(CN2CCCC(Nc3cccc(F)c3)C2)c(=O)n(-c2ccccc2)n1C` (stereo not given): 1.15.
For the molecule `Cc1cccc(-c2cnc(-c3ccncc3)nc2C2CCN(Cc3cccc(OCCO)c3)CC2)c1`, the “bacterial growth OD600” value (polymyxin B 0.75 µg/mL) stood at 0.683.
As for `O=C(Nc1nc2c(s1)C(=O)CC(C(=O)NC(c1ccccc1)c1ccccc1)C2)c1ccncc1` (stereo not given), where the note is “polymyxin B 0.75 µg/mL”, the “bacterial growth OD600” value worked out at 0.746.
Turning to `O=C(CCC1CCCN(C(=O)c2ccsc2)C1)NCc1ccccc1Cl` (stereo not given), the “bacterial growth OD600” value (polymyxin B 1 µg/mL) worked out at 0.947.
Consider `COc1ccc(F)c(CN2CCCC(CO)(Cc3ccc(F)cc3)C2)c1` (stereo not given), for which, under “polymyxin B 0.75 µg/mL”, the “bacterial growth OD600” value stood at 0.678.
